# In article doi:10.1101/2025.05.20.655051:
# No constants are given. Whether binding was seen depends on the method and setting. In cells and extracts the contact can be indirect. A yes stands for co-enrichment or nearness to the bait. Other partners may have been found. Sequences can lack the tags named with a protein.
# Target: T1, VIPP1-GFP (Vesicle Inducing Protein in Plastids 1 tagged by GFP at its C-terminus) (Arabidopsis thaliana) (UniProt O80796)
# T1 sequence: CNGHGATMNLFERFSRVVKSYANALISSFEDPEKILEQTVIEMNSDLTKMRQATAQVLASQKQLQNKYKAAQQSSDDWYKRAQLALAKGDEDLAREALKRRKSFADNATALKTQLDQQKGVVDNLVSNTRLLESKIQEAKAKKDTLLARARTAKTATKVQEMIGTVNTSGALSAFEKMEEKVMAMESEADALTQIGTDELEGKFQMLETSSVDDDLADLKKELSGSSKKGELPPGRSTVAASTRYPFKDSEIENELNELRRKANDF
# Assay: affinity purification with mass spectrometry
substance,measurement,value
PPR protein (At1g64430),binding,binds
